Publication PMC7819943, “Rice protein-binding microarrays: a tool to detect cis-acting elements near promoter regions in rice”
This is one part of the list.

Chains of the proteins cited; added tags and fusions are not shown.
UniProt Q0JBA9, entry or part of it: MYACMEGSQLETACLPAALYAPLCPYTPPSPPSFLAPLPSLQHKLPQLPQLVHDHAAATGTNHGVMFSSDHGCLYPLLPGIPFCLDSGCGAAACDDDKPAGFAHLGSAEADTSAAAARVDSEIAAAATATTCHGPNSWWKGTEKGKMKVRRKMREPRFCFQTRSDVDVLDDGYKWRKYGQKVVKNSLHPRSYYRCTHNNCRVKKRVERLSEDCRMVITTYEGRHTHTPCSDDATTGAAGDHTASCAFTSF

biological target: OsWRKY34 (Oryza sativa, UniProt Q0JBA9 1-250); assay: protein-binding microarray (RPBM); PBS, 2% BSA, 51.3 ng/ul salmon testes DNA, 50 uM zinc acetate, 200 nM TF, 25 C, 1 h; high values mean tight binding; conditions: protein: recombinant; tags: N-terminal polyhistidine and DsRed monomer fusion (pET32a); label: CyDye5-dUTP incorporated in the synthesized complementary strand; 3' TTTTT single-stranded linker to array surface; dsDNA, one strand shown
Procedure, shortened: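 Per-feature fluorescence intensity (arbitrary units), read on an Axon 4000B scanner, is the binding signal. Transcription factors carrying an N-terminal polyhistidine tag and DsRed fusion were expressed in E. coli BL21-CodonPlus and purified on Ni–NTA. A custom Agilent array, made double-stranded by primer extension with Cy5-dUTP and blocked with 2% BSA, was incubated with 200 nM protein in PBS, 2% BSA, salmon testes DNA and 50 µM zinc acetate at 25 °C for 1 h and then washed.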

| Sequence | binding signal |
| --- | --- |
| TTTCTTCCTCTGCTTCTTGGTTAGAACGCTCATGCTAGTTCGGAGTCACCTAGTGCAG | 10500 fluorescence intensity (a.u.) |
| TCTCTCTCTCTCTCTCTCTCTCTCTCTTCTCTTCTCTCATCGGAGTCACCTAGTGCAG | 10300 fluorescence intensity (a.u.) |
| GCAATCAACACACTTGTTGTGACCATACGTACCTCTTTGCCGGAGTCACCTAGTGCAG | 9410 fluorescence intensity (a.u.) |
| GCAGGGAATTTGGTGATTCAGAGTAGTTTGTGTTGGAAAACGGAGTCACCTAGTGCAG | 8180 fluorescence intensity (a.u.) |
| CCTATATTTTTATCAGATCTGATCCATGTACAAGTGGTACCGGAGTCACCTAGTGCAG | 9860 fluorescence intensity (a.u.) |
| GGGATCCTAACTCGCCACCAAACCTCCTCGTCGTTCTTCTCGGAGTCACCTAGTGCAG | 10700 fluorescence intensity (a.u.) |
| GCGTCCCCGCGGGGACGTTCCTGGTCGGGCGGGCGTACTTCGGAGTCACCTAGTGCAG | 9290 fluorescence intensity (a.u.) |
| AACCACTACCGTTTTTGACGTCAATTTCAATGCTCGGAATCGGAGTCACCTAGTGCAG | 11400 fluorescence intensity (a.u.) |
| TCTCCCACTAACCATCGCCGGGAAATATTCGACTTAAAGTCGGAGTCACCTAGTGCAG | 10200 fluorescence intensity (a.u.) |
| CAAACTGAGGATATTTAGTATTTTGCCACTTTATAAACACCGGAGTCACCTAGTGCAG | 9240 fluorescence intensity (a.u.) |
| TAACACGAGGTACGGGGAGGGGCGGATGGGTGGCGGCGGCCGGAGTCACCTAGTGCAG | 11900 fluorescence intensity (a.u.) |
| ACCTTTTTAAATATTTGACACTGTCGACTTTTTAGCACATCGGAGTCACCTAGTGCAG | 9730 fluorescence intensity (a.u.) |
| GAGGCAAACCAGTCGACAACATACACACATACATACAGGACGGAGTCACCTAGTGCAG | 8130 fluorescence intensity (a.u.) |
| ACCAATCTATGACCGGCCTGACGCCGGTCACGTCTGACTGCGGAGTCACCTAGTGCAG | 10700 fluorescence intensity (a.u.) |
| GCCTGCCTCGCCTCGGTTGGTGGCGCGCGCGCCGCTCGGCCGGAGTCACCTAGTGCAG | 8440 fluorescence intensity (a.u.) |
| AAATTAGCCTTCACTCGTTGCTACATACGTGTATTTTTTTCGGAGTCACCTAGTGCAG | 8970 fluorescence intensity (a.u.) |
| CATGATATAACTGTAACACATCAAGTTGTCTGACCATATCCGGAGTCACCTAGTGCAG | 8530 fluorescence intensity (a.u.) |
| TTCTCTCTTGTTTTCCGTTATTGTACTCGCTATTAGTGGTCGGAGTCACCTAGTGCAG | 8490 fluorescence intensity (a.u.) |
| TATGGTGTTTCTTAATTGCTTTTTGCTTTTTATTATATCTCGGAGTCACCTAGTGCAG | 11100 fluorescence intensity (a.u.) |
| CGACTGCAGCTGATCCGGATTCAACACGGACATAGTACACCGGAGTCACCTAGTGCAG | 8550 fluorescence intensity (a.u.) |
| CTTTTTCTTTCTTTTCGTTAGCACATTTTTAAAACAATTACGGAGTCACCTAGTGCAG | 8530 fluorescence intensity (a.u.) |
| GAAGAAAAACTCCTGGACTCGTTGACCAAAACCTAATACGCGGAGTCACCTAGTGCAG | 11100 fluorescence intensity (a.u.) |
| AGTACTACTACTACTACATACAGCTGCCTTTGCTTAGCTCCGGAGTCACCTAGTGCAG | 9580 fluorescence intensity (a.u.) |
| TGGCCATTCCCTTCCTCCCGCCGCACGCATCCTCTGATCCCGGAGTCACCTAGTGCAG | 8050 fluorescence intensity (a.u.) |
| ATTACCAATATTAATCACTTTCTGTGTTCTGCTGTTAATTCGGAGTCACCTAGTGCAG | 9410 fluorescence intensity (a.u.) |
| GAGCTAGATGCTCCCTCGCATCCATCTCCTAGCTTTCCTTCGGAGTCACCTAGTGCAG | 8790 fluorescence intensity (a.u.) |
| CATCATCATCATCCGTACAAAACGGTATCTAGCCTAGCTACGGAGTCACCTAGTGCAG | 8620 fluorescence intensity (a.u.) |

As a short view, some entries already given.

| Sequence | binding signal |
| --- | --- |
| AAATTAGCCTTCACTCGTTGCTACATACGTGTATTTTTTTCGGAGTCACCTAGTGCAG | 8970 fluorescence intensity (a.u.) |
| CATGATATAACTGTAACACATCAAGTTGTCTGACCATATCCGGAGTCACCTAGTGCAG | 8530 fluorescence intensity (a.u.) |
| TTCTCTCTTGTTTTCCGTTATTGTACTCGCTATTAGTGGTCGGAGTCACCTAGTGCAG | 8490 fluorescence intensity (a.u.) |
| TATGGTGTTTCTTAATTGCTTTTTGCTTTTTATTATATCTCGGAGTCACCTAGTGCAG | 11100 fluorescence intensity (a.u.) |

Later entries.

| Sequence | binding signal |
| --- | --- |
| CTCTTCTTGAGTTCTTGAATCAATGCGTTCTTGAGTTCTTCGGAGTCACCTAGTGCAG | 8880 fluorescence intensity (a.u.) |
| ATATATGCATGGCCCATCTTGAAGTTCATGTTGCACGTATCGGAGTCACCTAGTGCAG | 8610 fluorescence intensity (a.u.) |
| TTTACATGTGTATTTTGACCAGGCCCAGTGTTTCTATACTCGGAGTCACCTAGTGCAG | 8910 fluorescence intensity (a.u.) |
| TCGACATGCCTATTTATTCTGGCTTCGTCTTTTCCCATGCCGGAGTCACCTAGTGCAG | 8510 fluorescence intensity (a.u.) |
| AGGGTCTCATCACCGCCGCCGCCGCCGCCGCCTCCTCCTCCGGAGTCACCTAGTGCAG | 8480 fluorescence intensity (a.u.) |
| TACAAAGGAATCTCTTTTACACCATGTACTCCCTCTATCACGGAGTCACCTAGTGCAG | 8260 fluorescence intensity (a.u.) |
| ACTCCATCCACCGCCGCCGCCTCCACCACGCGCGCCGCATCGGAGTCACCTAGTGCAG | 8710 fluorescence intensity (a.u.) |
| CCGCCGTCGCGTGGGAGGGGAGGGGAGGGGATGGAAGGAGCGGAGTCACCTAGTGCAG | 11900 fluorescence intensity (a.u.) |
| ATTGTTTTATTTGGGTGATTAAATTTGTTTTTATTTACATCGGAGTCACCTAGTGCAG | 8430 fluorescence intensity (a.u.) |
| CAGATGTGTAGTCTTTTGTTTCTTCTATTTATTTATTCTACGGAGTCACCTAGTGCAG | 12900 fluorescence intensity (a.u.) |
| CATTAGATTTACATTTTGGTTTTGGATCGATTAATTCATGCGGAGTCACCTAGTGCAG | 10100 fluorescence intensity (a.u.) |
| GCTAGTTAGTATTGTTGTTTGAGCCGTATATTTTCTGTCGCGGAGTCACCTAGTGCAG | 12000 fluorescence intensity (a.u.) |
| TCTGTAATCGTGGTGTTCATGTGTGTGAAATTGATGTTTTCGGAGTCACCTAGTGCAG | 9700 fluorescence intensity (a.u.) |
| AATACGATTCCACCACCGCCTCTCATCTCCTCCTTTCTCGCGGAGTCACCTAGTGCAG | 8280 fluorescence intensity (a.u.) |
| ATCCTGTAGTCAACGGTTATGCATTCTTCTAATTGTTGTACGGAGTCACCTAGTGCAG | 8800 fluorescence intensity (a.u.) |
| ATTTGCTTAACTACGACGCCAGCATCGGCCTTTATTTCTTCGGAGTCACCTAGTGCAG | 9360 fluorescence intensity (a.u.) |
| GCCATTCTATAGGAGGTGGTGGGGAGGGTTTCGTGCTCCTCGGAGTCACCTAGTGCAG | 10800 fluorescence intensity (a.u.) |
| AGCTGCCCCACACCTGGCTCCGCCCCTGGCTCCGGGCACCCGGAGTCACCTAGTGCAG | 8250 fluorescence intensity (a.u.) |
| CTTTTGTTGTTCCCAATGCCACTGCCATGTCCATTTCTTGCGGAGTCACCTAGTGCAG | 10900 fluorescence intensity (a.u.) |
| AACTGCCGGTTGCCATGTTTAATTTGTCCACGCTAAGCTTCGGAGTCACCTAGTGCAG | 8570 fluorescence intensity (a.u.) |
| GTCCTGCATGCACCGCCCATGCCGCCCTGGGCCCACCGCTCGGAGTCACCTAGTGCAG | 8040 fluorescence intensity (a.u.) |
| CAATTTTCCCTCCCCTTTCATTCACCGTACTAACTTTATCCGGAGTCACCTAGTGCAG | 9590 fluorescence intensity (a.u.) |
| CCACGCGGCCACGCTATGCACGCGACGCCCACATCCACCACGGAGTCACCTAGTGCAG | 9660 fluorescence intensity (a.u.) |
| CTTATTTTTTTGTCTTTCGATCCAAGTCTTTTTTTTCTTTCGGAGTCACCTAGTGCAG | 9170 fluorescence intensity (a.u.) |
| ATCTCTCTTTCATCTTTCTTCTTTCTGCCTTTTTATCTTCCGGAGTCACCTAGTGCAG | 11800 fluorescence intensity (a.u.) |
| GTGGTTACTGTGGCTGGGCCTGCGTGAGCTGGGCTGACTACGGAGTCACCTAGTGCAG | 9220 fluorescence intensity (a.u.) |
| AACCTGCACGCTCATGTTGTTGTTTTGTGAAGATGCAACTCGGAGTCACCTAGTGCAG | 8030 fluorescence intensity (a.u.) |
